Data published in patent EP4445957A1 (priority 2023, dated 2024).
For some assays here: Some peptides are written in HELM: one residue between dots, names in brackets for other building blocks, links after the first $.

Key:
Conditions in all cases: whole synthesis, scale 0.1 mmol, chloride (salt exchange from trifluoroacetate)
[1] = general procedure: Fmoc solid-phase peptide synthesis; Fmoc-Phe preloaded Wang resin (loading = 0.33 mmol/g); DIC (symmetric anhydride for resin loading)
[2] = general procedure: Fmoc solid-phase peptide synthesis; Fmoc-Phe preloaded Wang resin (loading = 0.52 mmol/g); DIC (symmetric anhydride for resin loading)
[3] = general procedure: Fmoc solid-phase peptide synthesis; Wang resin (loading = 0.37 mmol/g); DIC (symmetric anhydride for resin loading)
[4] = general procedure: Fmoc solid-phase peptide synthesis; Wang resin (loading = 0.52 mmol/g); DIC (symmetric anhydride for resin loading)

| Substance | isolated mass [2] | isolated yield [2] | also measured |
| --- | --- | --- | --- |
| Ac-Gln-Cha-Dap(N-sulfonyl pyridone)-Leu-Phe-OH |  |  | isolated mass [1]: 8.6 mg; isolated yield [1]: 9% |
| PEPTIDE1{[ac].Q.[Cha].[Dap(chloroacetamide)].L.F}$$$$V2.0 | 12.5 mg | 16% |  |
| Ac-Gln-Cha-Dap(but-2-enamide)-Leu-Phe-OH | 38.3 mg | 51% |  |
| PEPTIDE1{[ac].Q.[Cha].[Dap(acrylamide)].L.F}$$$$V2.0 | 22.7 mg | 24% |  |
| PEPTIDE1{[ac].Q.[Cha].[Dap(but-2-ynamide)].L.F}$$$$V2.0 | 33.1 mg | 35% |  |
| Ac-Gln-Cha-Dap(chloroacetamide)-Leu-diClPhe-OH |  |  | isolated mass [3]: 17.4 mg; isolated yield [3]: 21% |
| PEPTIDE1{[ac].Q.[Cha].[Dap(bromoacetamide)].L.F}$$$$V2.0 |  |  | isolated mass [4]: 41.4 mg; isolated yield [4]: 51% |
